Consider one substance from PMC9860042.

Chains of the proteins cited; added tags and fusions are not shown. Residues count along the entry.
UniProt P05091, residues 18-517: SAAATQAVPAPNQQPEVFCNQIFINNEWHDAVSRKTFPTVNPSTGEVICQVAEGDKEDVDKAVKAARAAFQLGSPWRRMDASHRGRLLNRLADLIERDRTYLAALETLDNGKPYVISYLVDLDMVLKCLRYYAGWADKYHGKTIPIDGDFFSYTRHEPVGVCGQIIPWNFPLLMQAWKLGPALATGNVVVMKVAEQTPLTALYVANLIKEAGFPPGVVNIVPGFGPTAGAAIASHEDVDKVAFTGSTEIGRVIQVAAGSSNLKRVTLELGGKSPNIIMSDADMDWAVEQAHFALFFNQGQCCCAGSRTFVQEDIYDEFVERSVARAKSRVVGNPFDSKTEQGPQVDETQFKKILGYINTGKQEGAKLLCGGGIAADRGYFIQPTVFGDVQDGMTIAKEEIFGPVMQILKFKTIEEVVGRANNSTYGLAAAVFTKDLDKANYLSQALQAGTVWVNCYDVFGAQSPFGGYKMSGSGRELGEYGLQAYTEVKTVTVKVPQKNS

In this test the target is T1, peroxisomal proliferator-γ coactivator-1α (PGC-1α) (human (endogenous in HK-2)) (UniProt Q9UBK2).
T1 sequence: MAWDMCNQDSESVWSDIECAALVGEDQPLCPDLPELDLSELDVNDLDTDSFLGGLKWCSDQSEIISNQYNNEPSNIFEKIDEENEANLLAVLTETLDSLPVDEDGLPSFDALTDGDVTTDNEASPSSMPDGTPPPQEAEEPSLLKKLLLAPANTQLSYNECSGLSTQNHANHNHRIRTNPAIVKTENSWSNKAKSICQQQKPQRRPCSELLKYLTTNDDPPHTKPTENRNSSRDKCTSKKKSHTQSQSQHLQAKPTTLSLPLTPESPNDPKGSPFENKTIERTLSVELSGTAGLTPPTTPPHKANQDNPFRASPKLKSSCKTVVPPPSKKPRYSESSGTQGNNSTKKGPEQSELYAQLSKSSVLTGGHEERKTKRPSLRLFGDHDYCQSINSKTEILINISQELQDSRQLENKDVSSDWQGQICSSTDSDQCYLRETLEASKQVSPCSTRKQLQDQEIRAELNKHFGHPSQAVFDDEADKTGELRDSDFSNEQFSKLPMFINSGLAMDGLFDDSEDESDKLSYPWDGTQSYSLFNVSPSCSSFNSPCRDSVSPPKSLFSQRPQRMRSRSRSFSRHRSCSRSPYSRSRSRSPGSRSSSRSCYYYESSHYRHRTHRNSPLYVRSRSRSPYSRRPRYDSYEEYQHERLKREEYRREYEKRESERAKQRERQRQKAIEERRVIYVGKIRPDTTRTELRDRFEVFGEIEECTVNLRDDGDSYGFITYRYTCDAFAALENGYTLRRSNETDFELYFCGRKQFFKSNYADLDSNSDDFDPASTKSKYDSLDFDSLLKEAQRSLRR
As to the kind of experiment: co-IP; endogenous proteins in lysates of control and MA-treated (1 mM, 24 h) HK-2 cells; Protein A/G magnetic beads with antibody, 1 h at room temperature; western blot.

Results are given in words; binding and its absence hold for the method and conditions named. Binding seen in cells or lysates may run through a third protein. Some binding calls cover weakened binding; strength is not graded here.

Regarding “Aldehyde dehydrogenase 2 (ALDH2), endogenous (from UniProt P05091 18-517) (enzyme)”, the binding entry was “binds”.
